Laboratory results: publication doi:10.1101/2020.07.30.228585
These are yes or no findings as the source states them, for the method shown. Binding calls can cover weak binding; strength is not graded here.

Target: S. pombe Y-complex (also called Nup107 complex) (S. pombe (endogenous in S. pombe cells))
Assay: cryo-EM structure

B1: Ely5 (protein, UniProt O94384 1-298)
chain: MLKMEDDQFERFVGLFSMKDEDFPYNSQVTNEIQTFRKQQVDSQLFFDVLLSFIEGIEDPSSLYPPKSIDDLQSLFMIIENSNIDELKQQCFYYYLLKDWEKSETYSEQVSLPKNYQHLMDGYYYLDRLKFEEAINHLLLPDVLPNFPDKIIETLYSNEKYKFLIRFVSFVGPPLDTFRKEECYALSLVRYSFLASYHYMKKCTKPLVLWEEMIQLILESNDTQSCKLIVSLPLSQEECEVLFSLLRSKKEPLYLNTLLALLVESNNIQEALELSSNSTHLQKSAVNTYLHKLNSLSS
For B1, the binding was “binds”.
